Some of these results come from one statement about several compounds together. For at least one compound, name, drawing or mass did not settle the structure.
Each compound was assayed against T1, α4β1 integrin (Homo sapiens, UniProt P05556+P13612) (assay: U-937 cell adhesion to human VCAM-1 (α4β1 binding assay)). Settings: U-937 cells, immobilized human VCAM-1; bin with mixed units (μM upper, nM lower), units kept in value; read-out: IC50 values in the α4β1 assays.
T1 construct: endogenous in cells; host or cells: U-937 cells
Assay type: cell-based
Procedure: U-937 Cell Adhesion to Human VCAM-1 (α4β1 Binding Assay)
Recombinant human soluble VCAM-1 (R&D Systems Ltd., UK) at 2 μg/ml in PBS was immobilized overnight onto microtiter plates. Unbound VCAM-1 was washed away and VCAM-1 coated plates were blocked with bovine serum albumin (BSA) 2,5% in PBS for 2 h at room temperature. U-937 cells were labelled with 5-carboxyfluorescein diacetate (5-CFDA) in order to detect bound cells to the wells. Test compounds were added to the wells followed by U-937 cells and the adhesion assay was performed for 1 h at 37° C. Following incubation, the wells were emptied and washed. Inhibition of binding was measured by the quantity of fluorescence bound to the plate for each of the various concentrations of test compound, as well as for controls containing no test compound, with a Cytofluor 2300 fluorescence measurement system.

Chains of the proteins cited; added tags and fusions are not shown. Residues count along the entry.
UniProt P13612, 34-1032: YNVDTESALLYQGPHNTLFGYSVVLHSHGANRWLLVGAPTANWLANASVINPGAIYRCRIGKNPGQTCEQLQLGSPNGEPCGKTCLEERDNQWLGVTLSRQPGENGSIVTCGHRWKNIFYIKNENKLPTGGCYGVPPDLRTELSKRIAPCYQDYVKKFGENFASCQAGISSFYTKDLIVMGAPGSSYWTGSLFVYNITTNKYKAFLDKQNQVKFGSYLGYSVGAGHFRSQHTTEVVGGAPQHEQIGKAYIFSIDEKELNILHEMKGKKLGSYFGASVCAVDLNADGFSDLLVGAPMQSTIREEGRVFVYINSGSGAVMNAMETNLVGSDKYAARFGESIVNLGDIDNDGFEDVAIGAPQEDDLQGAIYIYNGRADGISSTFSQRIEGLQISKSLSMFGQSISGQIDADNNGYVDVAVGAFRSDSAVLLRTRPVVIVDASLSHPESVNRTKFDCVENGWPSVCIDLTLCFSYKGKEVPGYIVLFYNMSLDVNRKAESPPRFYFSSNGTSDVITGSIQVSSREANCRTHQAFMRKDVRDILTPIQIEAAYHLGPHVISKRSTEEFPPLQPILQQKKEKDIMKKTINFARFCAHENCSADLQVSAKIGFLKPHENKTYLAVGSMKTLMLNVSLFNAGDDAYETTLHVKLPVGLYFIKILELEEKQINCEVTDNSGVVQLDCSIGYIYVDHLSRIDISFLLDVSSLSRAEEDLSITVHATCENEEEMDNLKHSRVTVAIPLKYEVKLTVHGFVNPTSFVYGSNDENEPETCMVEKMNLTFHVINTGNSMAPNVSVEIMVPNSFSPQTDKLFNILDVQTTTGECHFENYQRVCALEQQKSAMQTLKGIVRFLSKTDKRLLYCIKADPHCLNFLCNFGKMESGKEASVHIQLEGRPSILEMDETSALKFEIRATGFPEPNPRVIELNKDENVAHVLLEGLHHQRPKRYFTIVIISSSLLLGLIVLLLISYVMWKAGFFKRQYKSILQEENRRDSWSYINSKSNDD

| Structure (SMILES) | IC50 |
| --- | --- |
| CN(C(=O)c1ccccc1NC(=O)N[C@@H](Cc1ccc(NC(=O)c2c(Cl)cccc2Cl)cc1)C(=O)O)c1ccccc1 [Example 6, (S)-3-[4-(2,6-Dichlorobenzoylamino)phenyl]-2-{3-[2-(methylphenylcarbamoyl)phenyl]ureido}propionic acid] | 0.1 to 1 µM |
| O=C(Nc1ccccc1C(=O)N1CCCCC1)N[C@@H](Cc1ccc(NC(=O)c2c(Cl)cccc2Cl)cc1)C(=O)O [Example 8, (S)-3-[4-(2,6-Dichlorobenzoylamino)phenyl]-2-{3-[2-(piperidine-1-carbonyl)phenyl]ureido}propionic acid] | 0.1 to 1 µM |
| O=C(Nc1ccccc1Nc1ccccc1)N[C@@H](Cc1ccc(NC(=O)c2c(Cl)cccc2Cl)cc1)C(=O)O [Example 14, (S)-3-[4-(2,6-Dichlorobenzoylamino)phenyl]-2-[3-(2-phenylaminophenyl)ureido]propionic acid] | 0.1 to 1 µM |
| CN1CCN(C(=O)c2ccccc2NC(=O)N[C@@H](Cc2ccc(NC(=O)c3c(Cl)cccc3Cl)cc2)C(=O)O)CC1 [Example 19, (S)-3-[4-(2,6-Dichlorobenzoylamino)phenyl]-2-{3-[2-(4-methylpiperazine-1-carbonyl)phenyl]ureido}propionic acid] | 0.1 to 1 µM |
| O=C(Nc1ccccc1C(=O)NCc1ccccc1)N[C@@H](Cc1ccc(NC(=O)c2c(Cl)cccc2Cl)cc1)C(=O)O [Example 24, (S)-2-[3-(2-Benzylcarbamoylphenyl)ureido]-3-[4-(2,6-dichlorobenzoylamino)phenyl]propionic acid] | 0.1 to 1 µM |
| O=C(Nc1ccccc1C(=O)NC1CCCCC1)N[C@@H](Cc1ccc(NC(=O)c2c(Cl)cccc2Cl)cc1)C(=O)O [Example 25, (S)-2-[3-(2-Cyclohexylcarbamoylphenyl)ureido]-3-[4-(2,6-dichlorobenzoylamino)phenyl]propionic acid] | 0.1 to 1 µM |
| O=C(Nc1ccccc1C(=O)Nc1ccccc1)N[C@@H](Cc1ccc(NC(=O)c2c(Cl)cccc2Cl)cc1)C(=O)O [Example 26, (S)-3-[4-(2,6-Dichlorobenzoylamino)phenyl]-2-[3-(2-phenylcarbamoylphenyl)ureido]propionic acid] | 0.1 to 1 µM |
| O=C(Nc1ccccc1C(=O)NCC1CCCCC1)N[C@@H](Cc1ccc(NC(=O)c2c(Cl)cccc2Cl)cc1)C(=O)O [Example 27, (S)-2-{3-[2-(Cyclohexylmethylcarbamoyl)phenyl]ureido}-3-[4-(2,6-dichlorobenzoylamino)phenyl]propionic acid] | 0.1 to 1 µM |
| CC(C)(C)NC(=O)c1ccccc1NC(=O)N[C@@H](Cc1ccc(NC(=O)c2c(Cl)cccc2Cl)cc1)C(=O)O [Example 28, (S)-2-[3-(2-tert-Butylcarbamoylphenyl)ureido]-3-[4-(2,6-dichlorobenzoylamino)phenyl]propionic acid] | 0.1 to 1 µM |
| O=C(Nc1c(Cl)cc(Cl)cc1C(=O)NCC1CCCCC1)N[C@@H](Cc1ccc(NC(=O)c2c(Cl)cccc2Cl)cc1)C(=O)O [Example 29, (S)-3-[4-(2,6-Dichlorobenzoylamino)phenyl]-2-{3-[2,4-dichloro-6-(cyclohexylmethylcarbamoyl)phenyl]ureido}propionic acid] | 0.1 to 1 µM |
| Cc1cccc(C(=O)NCC2CCCCC2)c1NC(=O)N[C@@H](Cc1ccc(NC(=O)c2c(Cl)cccc2Cl)cc1)C(=O)O [Example 30, (S)-2-{3-[2-(Cyclohexylmethylcarbamoyl)-6-methylphenyl]ureido}-3-[4(2,6-dichlorobenzoylamino)phenyl]propionic acid] | 0.1 to 1 µM |
| O=C(Nc1cscc1S(=O)(=O)c1ccc(Cl)cc1)N[C@@H](Cc1ccc(NC(=O)c2c(Cl)cccc2Cl)cc1)C(=O)O [Example 34, (S)-2-{3-[4-(4-Chlorobenzenesulfonyl)thiophen-3-yl]ureido}-3-[4-(2,6-dichlorobenzoylamino)phenyl]propionic acid] | 0.1 to 1 µM |
| O=C(Nc1cc(Cl)ccc1S(=O)(=O)c1ccc(Cl)cc1)N[C@@H](Cc1ccc(NC(=O)c2c(Cl)cccc2Cl)cc1)C(=O)O [Example 46, (S)-2-{3-[5-Chloro-2-(4-chlorobenzenesulfonyl)phenyl]ureido}-3-[4-(2,6-dichlorobenzoylamino)phenyl]propionic acid] | 0.1 to 1 µM |
| O=C(Nc1c(Br)cc(Br)cc1C(=O)NCC1CCCCC1)N[C@@H](Cc1ccc(NC(=O)c2c(Cl)cccc2Cl)cc1)C(=O)O [Example 50, (S)-2-{3-[2,4-Dibromo-6-(cyclohexylmethylcarbamoyl)phenyl]ureido}-3-[4-(2,6-dichlorobenzoylamino)phenyl]propionic acid] | 0.1 to 1 µM |
| Cc1ccc(S(=O)(=O)c2ccc(C(F)(F)F)cc2NC(=O)N[C@@H](Cc2ccc(NC(=O)c3c(Cl)cccc3Cl)cc2)C(=O)O)cc1 [Example 52, (S)-3-[4-(2,6-Dichlorobenzoylamino)phenyl]-2-{3-[2-(toluene-4-sulfonyl)-5-trifluoromethylphenyl]ureido}propionic acid] | 0.1 to 1 µM |
| COc1ccc(OC)c(S(=O)(=O)c2ccc(Cl)cc2NC(=O)N[C@@H](Cc2ccc(NC(=O)c3c(Cl)cccc3Cl)cc2)C(=O)O)c1 [Example 56, (S)-2-{3-[5-Chloro-2-(2,5-dimethoxybenzenesulfonyl)phenyl]ureido}-3-[4-(2,6-dichlorobenzoylamino)phenyl]propionic acid] | 0.1 to 1 µM |
| COc1cccc(OC)c1-c1ccc(C[C@H](NC(=O)Nc2ccccc2S(=O)(=O)c2ccccc2)C(=O)O)cc1 [Example 60, (S)-2-[3-(2-Benzenesulfonylphenyl)ureido]-3-(2′,6′-dimethoxybiphenyl-4-yl) propionic acid] | 0.1 to 1 µM |
| O=C(Nc1ccccc1S(=O)(=O)N1CCCCC1)N[C@@H](Cc1ccc(NC(=O)c2c(Cl)cncc2Cl)cc1)C(=O)O [Example 100] | 0.1 to 1 µM |
| O=C(Nc1ccccc1S(=O)(=O)c1ccccc1)N[C@@H](Cc1ccc(NC(=O)c2ccc(Cl)nc2Cl)cc1)C(=O)O [Example 104, (S)-2-[3-(2-Benzenesulfonylphenyl)ureido]-3-(4-{[1-(2,6-dichloropyridin-3-yl)-methanoyl]amino}phenyl)propionic acid] | 0.1 to 1 µM |
| O=C(Nc1ccccc1S(=O)(=O)c1ccccc1)N[C@@H](Cc1ccc(NCc2c(Cl)cccc2Cl)cc1)C(=O)O [Example 108, (S)-2-[3-(2-Benzenesulfonylphenyl)ureido]-3-[4-(2,6-dichlorobenzylamino)phenyl]propionic acid] | 0.1 to 1 µM |
| N#Cc1ccccc1-c1ccc(C[C@H](NC(=O)Nc2ccccc2S(=O)(=O)N2CCCCC2)C(=O)O)cc1 [Example 118, (S)-3-(2′-Cyanobiphenyl-4-yl)-2-{3-[2-(piperidine-1-sulfonyl)phenyl]ureido}propionic acid] | 0.1 to 1 µM |
| COc1ccccc1-c1ccc(C[C@H](NC(=O)Nc2ccccc2S(=O)(=O)N2CCCCC2)C(=O)O)cc1 [Example 120] | 0.1 to 1 µM |
| CN(C(=O)N[C@@H](Cc1ccc(Nc2nccc3cnccc23)cc1)C(=O)O)c1ccccc1Cc1ccccc1 [Example 126, (S)-2-[3-(2-Benzylphenyl)-3-methylureido]-3-[4-([2,6]naphthyridin-1-ylamino)phenyl]propionic acid] | 0.1 to 1 µM |
| CN(C(=O)N[C@@H](Cc1ccc(Nc2nccc3ccncc23)cc1)C(=O)O)c1ccccc1Cc1ccccc1 [Example 132, (S)-2-[3-(2-Benzylphenyl)-3-methylureido]-3-[4-([2,7]naphthyridin-1-ylamino)phenyl]propionic acid] | 0.1 to 1 µM |
| O=C(Nc1ccccc1S(=O)(=O)c1ccccc1)N[C@@H](Cc1ccc(Oc2nccc3ccncc23)cc1)C(=O)O [Example 138, (S)-2-[3-(2-Benzenesulfonylphenyl)ureido]-3-[4-([2,7]naphthyridin-1-yloxy)phenyl]propionic acid] | 0.1 to 1 µM |
| CN(C(=O)N[C@@H](Cc1ccc(Oc2nccc3ccncc23)cc1)C(=O)O)c1ccccc1Cc1ccccc1 [Example 142, (S)-2-[3-(2-Benzylphenyl)-3-methylureido]-3-[4-([2,7]naphthyridin-1-yloxy)phenyl]propionic acid] | 0.1 to 1 µM |

Same assay, conditions: U-937 cells, immobilized human VCAM-1; read-out: IC50 values in the α4β1 assays

| Structure (SMILES) | IC50 |
| --- | --- |
| O=C(Nc1ccccc1Cc1ccccc1)N[C@@H](Cc1ccc(NC(=O)c2c(Cl)cccc2Cl)cc1)C(=O)O [Example 42, (S)-2-[3-(2-Benzylphenyl)ureido]-3-[4-(2,6-dichibrobenzoylamino)phenyl]propionic acid] | < 0.1 µM |
| CN(C(=O)N[C@@H](Cc1ccc(NC(=O)c2c(Cl)cncc2Cl)cc1)C(=O)O)c1ccccc1S(=O)(=O)N1CCNCC1 [Example 102, (S)-3-(4-{[1-(3,5-Dichlaropyridin-4-yl)methanoyl]amino}phenyl)-2-{3-methyl-3-[2-(piperazine-1-sulfonyl)phenyl]ureido}propionic acid] | < 0.1 µM |

From US7253171B2 (Laboratorios Almirall, S.A., priority 2001, dated 2007)
